# The list shows a part of the results.
# Test: Plasmodium liver-stage growth inhibition, dose response, imaging, Malaria Box, P. yoelii, HepG2-A16-CD81EGFP (AID 602156)
# Conditions: P. yoelii liver stage in HepG2-A16-CD81EGFP, liver parasite size at 10 uM, stronger effect = lower value
row,SMILES,parasite size
1,CCCN(CCC)[P+](CC)(N(CCC)CCC)N(CCC)CCC,31.2 um

# From PubChem BioAssay AID602156 (GNF / Scripps Winzeler lab, 2011)
